Chains of the proteins cited; added tags and fusions are not shown.
UniProt P51150: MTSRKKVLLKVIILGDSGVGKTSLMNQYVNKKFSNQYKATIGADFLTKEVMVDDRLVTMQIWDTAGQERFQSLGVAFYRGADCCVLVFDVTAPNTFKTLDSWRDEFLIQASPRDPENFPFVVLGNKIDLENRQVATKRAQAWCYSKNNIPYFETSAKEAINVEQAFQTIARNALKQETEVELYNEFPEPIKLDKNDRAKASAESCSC

In PMC11374810:

Biological target: T1, GFP-VPS4a^WT (UniProt Q9UN37)
T1 sequence: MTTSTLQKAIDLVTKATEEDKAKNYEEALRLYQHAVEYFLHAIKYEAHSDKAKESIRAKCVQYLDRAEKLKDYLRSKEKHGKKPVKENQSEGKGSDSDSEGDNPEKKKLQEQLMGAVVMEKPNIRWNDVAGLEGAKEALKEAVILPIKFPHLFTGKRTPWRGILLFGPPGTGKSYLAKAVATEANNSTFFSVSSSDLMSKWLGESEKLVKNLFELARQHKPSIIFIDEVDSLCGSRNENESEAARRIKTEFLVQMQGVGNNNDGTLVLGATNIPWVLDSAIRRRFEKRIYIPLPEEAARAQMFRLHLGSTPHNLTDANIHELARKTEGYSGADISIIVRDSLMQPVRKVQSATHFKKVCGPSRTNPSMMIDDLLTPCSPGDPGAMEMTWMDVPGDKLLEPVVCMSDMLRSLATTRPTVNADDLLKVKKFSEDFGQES
Assay: affinity purification with mass spectrometry; GFP-Trap agarose pulldown of GFP-VPS4a from lysates of sgControl or sgRNAseK cells cultured in AA-free DMEM for 3 h; PD buffer (150 mM NaCl, 20 mM Tris-HCl pH 7.5, 5 mM EDTA, 1% Triton-X), overnight at 4 °C; MS

| binding | Substance |
| --- | --- |
| binds | RAB7 (from UniProt P51150 1-207) |
| binds | Syntaxin17 (STX17) |

No constants are given. Whether binding was seen depends on the method and setting. In cells and extracts the contact can be indirect. Here binding means that the protein was enriched with, or labelled near, the bait; the list need not be complete. Tags and fused reporters may be left off the sequences shown.
